Measured values as given in paper doi:10.1101/2024.07.13.603409.
Results are given in words; binding and its absence hold for the method and conditions named. Binding seen in cells or lysates may run through a third protein. Some binding calls cover weakened binding; strength is not graded here. For some of these results: Where a sequence is shown, tags or fusion partners need not be part of it.

Amino acid sequences for entries named in this document (tags omitted).
UniProt Q14790: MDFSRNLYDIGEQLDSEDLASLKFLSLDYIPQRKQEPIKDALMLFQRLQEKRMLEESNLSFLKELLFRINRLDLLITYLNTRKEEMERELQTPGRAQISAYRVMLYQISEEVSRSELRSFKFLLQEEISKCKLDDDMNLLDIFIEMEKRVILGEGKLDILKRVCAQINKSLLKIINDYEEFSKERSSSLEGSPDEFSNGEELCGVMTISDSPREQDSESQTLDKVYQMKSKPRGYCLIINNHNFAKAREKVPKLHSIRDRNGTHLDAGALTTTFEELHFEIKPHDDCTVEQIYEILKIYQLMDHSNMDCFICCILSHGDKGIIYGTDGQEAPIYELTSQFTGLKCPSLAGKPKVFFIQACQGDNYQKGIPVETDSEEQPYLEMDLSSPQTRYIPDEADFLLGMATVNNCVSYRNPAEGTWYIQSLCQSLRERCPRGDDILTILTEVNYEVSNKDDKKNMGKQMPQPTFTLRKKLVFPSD
UniProt O00429: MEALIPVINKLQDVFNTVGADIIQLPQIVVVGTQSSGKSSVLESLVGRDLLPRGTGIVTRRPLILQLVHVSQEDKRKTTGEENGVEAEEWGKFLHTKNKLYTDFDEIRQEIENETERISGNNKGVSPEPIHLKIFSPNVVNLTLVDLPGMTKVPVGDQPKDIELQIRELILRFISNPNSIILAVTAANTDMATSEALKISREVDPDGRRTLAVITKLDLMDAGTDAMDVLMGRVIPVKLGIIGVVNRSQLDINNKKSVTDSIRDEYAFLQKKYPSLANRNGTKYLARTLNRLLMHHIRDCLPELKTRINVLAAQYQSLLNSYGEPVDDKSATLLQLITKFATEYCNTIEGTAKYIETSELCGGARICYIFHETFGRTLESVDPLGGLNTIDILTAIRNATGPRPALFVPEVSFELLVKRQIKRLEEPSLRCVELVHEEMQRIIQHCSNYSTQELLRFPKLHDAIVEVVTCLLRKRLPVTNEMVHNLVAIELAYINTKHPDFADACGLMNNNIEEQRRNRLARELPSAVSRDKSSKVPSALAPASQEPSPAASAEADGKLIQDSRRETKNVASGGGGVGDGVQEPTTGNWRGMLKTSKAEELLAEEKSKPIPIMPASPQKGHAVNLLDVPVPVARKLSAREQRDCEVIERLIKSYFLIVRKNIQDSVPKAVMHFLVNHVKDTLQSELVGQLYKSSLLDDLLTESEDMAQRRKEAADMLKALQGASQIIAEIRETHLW

Assays:
Assay in all cases: pull-down
caspase-8, strep-tagged = caspase-8, strep-tagged (UniProt Q14790)
caspase-7, strep-tagged = target: T1, caspase-7, strep-tagged (UniProt P55210)
T1 sequence: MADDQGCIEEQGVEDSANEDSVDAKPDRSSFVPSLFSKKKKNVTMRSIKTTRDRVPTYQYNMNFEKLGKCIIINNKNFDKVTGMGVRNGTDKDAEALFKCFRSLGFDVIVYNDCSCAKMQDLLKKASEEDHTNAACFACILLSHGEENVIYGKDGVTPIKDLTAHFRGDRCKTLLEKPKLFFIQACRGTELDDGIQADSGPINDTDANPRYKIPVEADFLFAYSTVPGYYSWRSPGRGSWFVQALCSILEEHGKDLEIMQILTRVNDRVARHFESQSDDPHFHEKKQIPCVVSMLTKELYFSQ

[1] = target: T2, caspase-3, strep-tagged (human) (UniProt P42574)
T2 sequence: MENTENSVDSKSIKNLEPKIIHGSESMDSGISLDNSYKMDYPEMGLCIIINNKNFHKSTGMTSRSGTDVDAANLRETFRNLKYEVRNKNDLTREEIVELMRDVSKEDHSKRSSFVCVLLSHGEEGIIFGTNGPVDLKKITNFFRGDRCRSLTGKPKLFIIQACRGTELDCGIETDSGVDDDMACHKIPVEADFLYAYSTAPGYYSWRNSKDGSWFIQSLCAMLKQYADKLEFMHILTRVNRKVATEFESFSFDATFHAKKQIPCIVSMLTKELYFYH

caspase-6, strep-tagged = target: T3, caspase-6, strep-tagged (UniProt P55212)
T3 sequence: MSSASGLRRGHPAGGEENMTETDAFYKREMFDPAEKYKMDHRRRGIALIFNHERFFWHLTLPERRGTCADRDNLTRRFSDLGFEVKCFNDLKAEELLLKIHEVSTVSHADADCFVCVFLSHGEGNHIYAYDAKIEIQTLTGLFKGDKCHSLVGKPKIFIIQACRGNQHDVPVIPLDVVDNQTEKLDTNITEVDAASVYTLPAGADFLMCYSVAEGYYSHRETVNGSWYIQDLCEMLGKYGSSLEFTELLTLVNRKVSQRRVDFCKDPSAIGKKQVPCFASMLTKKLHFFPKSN

- binding (caspase-8, strep-tagged): binds
- binding (caspase-7, strep-tagged): binds
- binding [1]: binds
- binding (caspase-6, strep-tagged): binds
Substance: dynamin-related protein 1 (DRP1), V5-tagged (from UniProt O00429 1-736)
